Earlier results in patent US11471538B2, “Methods and pharmaceutical compositions for the treatment of cancers associated with activation of the MAPK pathway” (INSERM (Institut National de la Santé et de la Recherche …, priority 2017, dated 2022).
Some results were stated once for a whole list of compounds, not compound by compound.

System: BRAFV600E positive metastatic melanomas
Conditions: subjects with BRAFV600E positive metastatic melanomas; cited from earlier work

## CCCS(=O)(=O)Nc1ccc(F)c(C(=O)c2c[nH]c3ncc(-c4ccc(Cl)cc4)cc23)c1F [PLX4032]
  subjects showing therapeutic effect: more than 50%
